## Primary screen of a compound library

Source: ChEMBL document CHEMBL3988442, “University of Dundee, Small-Polar-MMV Screening Library” (2021).

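Assay of Toxoplasma gondii numbers, read through their beta-galactosidase reporter with a colour substrate. Tested at 50 µM. The record gives no direction; the compounds picked for IC50 retests had high values, so higher reads as fewer parasites. About 18,000 compounds were tested under these conditions; 0.94% (about 170) showed 50% or more at least once.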

Values are the deposited “Percent Effect”, in %. The controls that fix the scale are not given in the record; negative values are as filed. The compounds are a random part of those screened.

Compound	effect
CC(C)N(C)CCNC(=O)c1ccco1	11.21
NC1CSCc2c(F)cccc21 (centres unmarked)	16.82
Cc1cc(=O)[nH]c(CN)n1	16.37
Cc1nccc(CNc2ncc(C(N)=O)cc2Cl)n1	-11.46
COC[C@@H]1CCCN1Cc1cc(OC)ccn1	-19.63
CN1CCC(N(C)C(=O)Nc2ccc(C#N)cc2)CC1	7.395
CC(C)(C)OC(=O)NCC(C)(N)C1CC1 (centres unmarked)	-14.12
NCc1cc(Oc2ccc(F)c(F)c2)ccn1	10.77
NCc1ccc2[nH]c(=O)oc2c1	1.073
CCNc1ccnc(C(=O)NCc2ccccc2)c1	1.809
O=C(CN1CCCC1=O)NCCc1cccnc1	3.445
CCO[C@H]1CN(c2ccc(C(N)=O)cn2)C[C@@H]1O	-6.17
CC(N)c1ccc(NC(N)=O)cc1 (centres unmarked)	-24.43
CCOc1ncccc1C(=O)N[C@@H]1CCOC[C@H]1OC	10.44
COC(C(=O)NCCn1cccn1)c1ccccc1 (centres unmarked)	-10.38
CN(C)C(CNC(=O)c1ccc(O)nc1)c1ccsc1 (centres unmarked)	-7.004
N#Cc1ccc(NC(=O)NCc2cncnc2N)cc1	1.048
CC(C)(C)C(=O)COc1ccc(S(C)(=O)=O)cc1	1.468
CN(Cc1cccs1)C(=O)CSc1n[nH]c(=O)n1C	-13.1
NC(=O)CN(C1CCCC1)S(=O)(=O)c1cccnc1	-3.051
COC(=O)N1CCCC(NC(=O)NC(C)C)C1 (centres unmarked)	-2.349
CC(N)C(=O)N(CCN(C)C)Cc1ccccc1F (centres unmarked)	7.569
COC(=O)c1ccc(=O)n(CC(=O)NCCC(C)C)c1	-0.8307
CO[C@H]1CNCC1NC(=O)Cc1ccc(F)cc1Cl (some centres unmarked)	-6.934
Nc1cnn(-c2ncccc2Br)c1	0.7422
C[C@@H]1CN(C(=O)c2cc(F)ccc2F)C[C@H]1CO	-5.176
CN(Cc1cc(Br)cs1)C(=O)C(C)(C)CN	1.343
CC(O)c1c(F)cccc1-n1cncn1 (centres unmarked)	-28.05
Clc1cnn(C2CCNCC2)c1	1.893
Cc1ccc(NC(=O)CCn2ccc(=O)[nH]c2=O)cc1	5.897
Cc1ccccc1C(C)NC(=O)c1ccc(=O)n(C)n1 (centres unmarked)	1.732
CCCS(=O)(=O)NC1CCN(c2ccncc2Cl)CC1	-5.979
CC1(C)CN(C(=O)c2ncncc2Cl)CC[S+]1[O-] (centres unmarked)	20.41
O=C(Cc1ccccc1)OCCN1CCOCC1	2.459
O=C(CCS(=O)(=O)c1ccccc1)Nc1ccccn1	0.1272
CN(C)CC1CCCN1C(=O)NC1CC1 (centres unmarked)	18.99
CC1CCN(S(=O)(=O)N2CCN(S(C)(=O)=O)CC2)CC1	1.533
NC(=O)c1cc(N2CCCC2)ccn1	-5.505
NCC1CCN(S(=O)(=O)C2CC2)CC1	0.9078
COC(=O)c1ccc(NC2CC2)nn1	1.472
COc1ccc(CCCC(=O)N2CCC(CN)C2)cc1 (centres unmarked)	3.632

Some entries from above, unchanged:

- COC(C(=O)NCCn1cccn1)c1ccccc1 (centres unmarked) : -10.38%
- Clc1cnn(C2CCNCC2)c1 : 1.893%
- CN(C)C(CNC(=O)c1ccc(O)nc1)c1ccsc1 (centres unmarked) : -7.004%
- CC(C)N(C)CCNC(=O)c1ccco1 : 11.21%